According to publication PMC6250667:
Results are given in words; binding and its absence hold for the method and conditions named. Binding seen in cells or lysates may run through a third protein. Some entries that bind do so weakly or less than the wild type. Tags and fused reporters may be left off the sequences shown.

By UniProt entry, the sequences of proteins in these tests, tags left out.
UniProt P62715: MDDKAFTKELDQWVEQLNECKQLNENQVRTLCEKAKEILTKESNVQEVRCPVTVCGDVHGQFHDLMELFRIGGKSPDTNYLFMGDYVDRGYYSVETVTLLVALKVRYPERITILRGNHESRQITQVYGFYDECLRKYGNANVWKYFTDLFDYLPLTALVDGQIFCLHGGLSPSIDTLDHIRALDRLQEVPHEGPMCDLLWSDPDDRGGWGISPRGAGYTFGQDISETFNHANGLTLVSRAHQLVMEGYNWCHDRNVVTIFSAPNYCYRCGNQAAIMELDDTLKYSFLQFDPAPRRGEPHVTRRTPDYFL

Target: T1, FLAG Foxi3 FL 1–399 (mouse) (UniProt D3Z120)
T1 sequence: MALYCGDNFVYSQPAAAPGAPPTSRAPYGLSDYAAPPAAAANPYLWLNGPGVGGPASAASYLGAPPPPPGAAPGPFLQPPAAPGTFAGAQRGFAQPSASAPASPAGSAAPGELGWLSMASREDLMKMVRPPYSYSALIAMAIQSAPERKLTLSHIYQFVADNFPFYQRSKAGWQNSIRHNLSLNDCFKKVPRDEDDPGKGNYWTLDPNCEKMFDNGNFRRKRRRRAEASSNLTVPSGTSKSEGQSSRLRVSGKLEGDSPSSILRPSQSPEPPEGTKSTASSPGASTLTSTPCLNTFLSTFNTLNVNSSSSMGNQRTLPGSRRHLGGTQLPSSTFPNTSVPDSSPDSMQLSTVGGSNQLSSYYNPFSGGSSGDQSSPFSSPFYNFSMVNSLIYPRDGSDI
Assay: co-IP; Myc-tagged PP2A subunits co-transfected with FLAG Foxi3 in HEK-293T; anti-Flag M2 magnetic beads, 500 µg lysate, overnight at 4 °C, CoIP lysis buffer (Tris-HCl 25 mM pH 7.5, NaCl 150 mM, EDTA 1 mM, NP-40 1%, glycerol 5%, DTT 1 mM, phosphatase inhibitors); blot with MYC antibody

In the case of “Myc-tagged PPP2CB (from UniProt P62715 1-309) (enzyme)”, the binding is reported as “binds”.
